Assay results taken from paper PMC12298815 (Pharmaceutics, 2025).
Read-outs that look alike come from different tables or passages of the source.

Assay: In vivo pharmacokinetics in rats
Conditions: plasma, rat, AT 2.5 mg/kg; for AUC(0-inf): read-out: AUCinf of AT; for AUC(0-t): read-out: AUClast of AT
Experimental: Pharmacokinetic parameters were calculated using a non-compartmental analysis model with WinNonlin® software version 5.3 (Pharsight Corp., Mountain View, CA, USA). All quantitative data are presented as mean ± standard deviation (SD) or standard error of the mean (SEM), as indicated. Statistical analyses were performed using one-way analysis of variance (ANOVA) to assess differences among groups, followed by Tukey’s post hoc test for multiple comparisons. A p-value less than 0.05 (p < 0.05) was considered statistically significant.

A Cmax (IV) of 250 ± 62.2 ng/mL, an AUC(0-inf) (IV) of 205 ± 45.7 ng·h/mL and an AUC(0-t) (IV) of 204 ± 45.6 ng·h/mL were found for `CC(C)c1c(C(=O)Nc2ccccc2)c(-c2ccccc2)c(-c2ccc(F)cc2)n1CC[C@@H](O)C[C@@H](O)CC(=O)O` [AT, Atorvastatin] in this work. For the same molecule, the Cmax (oral) was 2.78 ± 0.2 ng/mL, the Tmax (oral) was 6 h and the AUC(0-inf) (oral) was 90.7 ± 19.9 ng·h/mL. It also gave an AUC(0-t) (oral) of 39.7 ± 2.96 ng·h/mL.
